Results on one molecule are retold here after doi:10.1101/197558.

These are yes or no findings as the source states them, for the method shown.

This test concerns the target KATNAL1 (E308Q) AAA ATPase domain, nucleotide-free, as found in the crystal (human) (UniProt Q9BW62). The test can be described thus: crystal structure.

B1: KATNAL1 (E308Q) AAA ATPase domain, nucleotide-free, as found in the crystal (domain or fragment, UniProt Q9BW62 184-490)
chain: AGYDKDLVEALERDIVSRNPSIHWDDIADLEEAKKLLREAVVLPMWMPDFFKGIRRPWKGVLMVGPPGTGKTMLAKAVATECGTTFFNVSSSTLTSKYRGESEKLVRLLFEMARFYAPTTIFIDQIDSICSRRGTSDEHEASRRVKSELLIQMDGVGGALENDDPSKMVMVLAATNFPWDIDEALRRRLEKRIYIPLPTAKGRAELLKINLREVELDPDIQLEDIAEKIEGYSGADITNVCRDASLMAMRRRINGLSPEEIRALSKEELQMPVTKGDFELALKKIAKSVSAADLEKYEKWMVEFGSA
For B1, the binding entry was “no binding”.
